The list shows a part of the results. These are further read-outs of the screen, such as a control signal, another cell line or another target. No call is given for them. Most of these compounds were active or inconclusive in the main read-out, so they are no random draw. Potencies come from curve fits of mixed quality, noted in brackets.
Test: qHTS Assay for Lipid Storage Modulators in Drosophila S3 Cells;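 as to cell number change: cells counted by Cell Tracker Red CMTPX staining in the red channel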
Conditions: BODIPY lipid droplet fluorescence, 18-24 h; for cell number change: measured here: cell count max response, cells fed with added oleic acid
How it was run: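 Laser-scanning cytometry quantifies lipid droplet accumulation (500–530 nm total intensity; droplet/cell object ratio) in oleic acid-fed (400 uM added) Drosophila S3 cells treated with a concentration series. 20 uM Triacsin C defined 100% inhibition.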

[1] = measured here: lipid fluorescence (Fed channel) AC50, cells fed with added oleic acid
[2] = measured here: cell number channel AC50, cells fed with added oleic acid

SMILES | cell number change [%] | AC50 [1] | AC50 [2]
O=C(CNc1ccc2c(c1)OCO2)N/N=C\c1cn(Cc2ccccc2)c2ccccc12 | 9.29 | 0.0259 µM [rising, full curve] | –
O=C(c1ccc(Cl)cc1)c1ccc(OCC(=O)N2CCOCC2)cc1 | 42.5 | 29.1 µM [rising, partial curve] | 4.11 µM [rising, full curve]
CCOC(=O)CC1=C(C(=O)OCC)C(c2ccncc2)C(C#N)=C(N)O1 (centres undefined) | -19.1 | 0.731 µM [falling, partial curve] | –
COc1ccccc1C(=O)NC(CCSC)C(=O)NNC(=O)C(C)Oc1ccccc1F (centres undefined) | -21 | 0.00461 µM [falling, full curve, poor fit] | –
O=C(N/N=C/C(Br)=C\c1ccccc1)c1ccco1 | 4.16 | 0.291 µM [rising, full curve, poor fit] | –
Cc1ccc(-c2nnc(N(C)C(=O)c3ccccn3)s2)cn1 | – | 6.51 µM [falling, single point] | –
CCn1c(N2CCN(Cc3ccc([N+](=O)[O-])cc3)CC2)nc2ccccc21 | -7.61 | 20.6 µM [falling, single point] | –
O=C(c1ccco1)N1CCN(S(=O)(=O)/C=C/c2ccccc2)CC1 | 38.6 | – | 10.3 µM [rising, single point]
CN(Cc1ccc(Cl)cc1)C(=O)CCl | -8.43 | 0.00411 µM [falling, full curve, poor fit] | –
Oc1ccccc1N=Cc1c(O)ccc2ccccc12 | -35 | 6.51 µM [rising, single point] | 29.1 µM [falling, single point]
Cc1ccc(C)c(S(=O)(=O)N2CCN(C(=O)c3ccncc3)CC2)c1 | -2.24 | – | –
S=C(NCCCN1CCOCC1)N(Cc1ccccc1)Cc1ccccc1 | – | 29.1 µM [rising, partial curve, poor fit] | –
O=C(COC(=O)c1cc2ccccc2cc1O)NC(=O)NCc1ccco1 | -30.3 | 18.4 µM [falling, single point] | 18.4 µM [falling, single point]
O=C(NCc1ccc(F)cc1)c1cnc2sccn2c1=O | – | 0.58 µM [rising, single point] | –
COC(=O)CCCC(=O)N1CCCC(C(=O)c2ccccc2SC)C1 (centres undefined) | 11.2 | 6.51 µM [falling, single point] | –
COc1ccc(C(=O)NC2CCCc3ccccc32)cc1Br (centres undefined) | -23.8 | 6.51 µM [falling, single point] | –
CC(C)Cn1c(N)c(C(=O)COC(=O)C2CCCCC2)c(=O)n(C)c1=O | 2.49 | 6.51 µM [rising, single point] | 3.26 µM [rising, single point]
CN(Cc1ccc(F)cc1)C(=O)CNC(=O)C1CCCCC1 | 38.7 | 6.51 µM [rising, partial curve, poor fit] | –
Cn1c(N/N=C/c2c[nH]c3ccccc23)nc2ccccc21 | 6.54 | 2.06 µM [rising, single point] | –
CC(=O)O[C@]1(C(C)=O)CCC2C3C=C(C)C4=CC(=O)CC[C@]4(C)C3CC[C@@]21C (some centres undefined) | 22.2 | – | 0.291 µM [rising, full curve, poor fit]
CC(C)CCNC(=O)CCNS(=O)(=O)c1ccc(Cl)cc1 | -21.8 | 2.91 µM [falling, partial curve] | –

SMILES | cell number change [%] | AC50 [1] | AC50 [2]
CN(C(=O)Cc1noc2ccccc12)c1ccccc1 | 0.218 | 0.146 µM [falling, full curve, poor fit] | –
Cc1cc(Cn2ccnc2)c(C)cc1Cn1ccnc1 | – | 0.116 µM [rising, full curve, poor fit] | –
CC(C)c1ccccc1OCC(O)CN1CCN(S(=O)(=O)c2ccc([N+](=O)[O-])cc2)CC1 (centres undefined) | -8.38 | – | –
CC(C)CC(OC(=O)c1ccc(Cl)nc1)C(=O)NC1CCCC1 (centres undefined) | 16.2 | 29.1 µM [rising, partial curve] | –
Cc1nc(-c2ccc(S(=O)(=O)NCc3cccnc3)s2)cs1 | -9.24 | – | –
CCOC(=O)c1cnn(-c2ccccc2)c1NC(=O)c1ccc(C)cc1 | 52.7 | 0.259 µM [rising, full curve] | 18.4 µM [rising, single point]
CCNC(=S)N/N=C(\C)c1cccc(OC)c1 | 6.41 | 6.51 µM [falling, single point] | –
CCOc1ccc(S(=O)(=O)NCCC(=O)NCC(c2ccc(OC)cc2)N2CCCC2)cc1 (centres undefined) | 3.74 | 29.1 µM [falling, single point] | –
COc1ccc(NC(=O)N2CCc3ccccc32)cc1 | 20.7 | – | –
O=C(CCOc1ccccc1)N1CCN(S(=O)(=O)c2ccccc2F)CC1 | -1.84 | 29.1 µM [rising, single point] | –
COc1ccc(CN(C)C(=O)c2cccc(S(=O)(=O)N3CCc4ccccc43)c2)c(OC)c1 | -27.5 | 0.58 µM [rising, single point] | –
Nc1c(Cl)c(Cl)nc(C(=O)N/N=C/c2cccnc2)c1Cl | 19.2 | – | –
CS(=O)(=O)c1ccc(C(=O)N2CC(=O)Nc3ccccc32)cc1 | 8.33 | 0.13 µM [rising, partial curve, poor fit] | –
O=C(CN1C(=O)CSC1=O)N1CCCC(Nc2ccc(F)cc2)C1 (centres undefined) | -20.9 | 29.1 µM [falling, single point] | –
O=C(Nc1cccc(Cl)c1)c1cc(F)cc2c1OCOC2 | 0.0296 | – | –
Cc1ccc2[nH]c(=O)c(CN(Cc3nnnn3C3CCCC3)C3CCCCC3)cc2c1 | 0.26 | 0.13 µM [falling, full curve, poor fit] | –
O=C1/C(=C/c2ccccc2)CSc2sccc21 | -0.195 | 0.00461 µM [falling, full curve, poor fit] | –
COCCn1c(NCc2ccco2)nc2c1c(=O)[nH]c(=O)n2C | 18 | 0.517 µM [falling, single point] | –
Cc1c(OCC(=O)NC(Cc2c[nH]c3ccc(O)cc23)C(=O)O)ccc2c3c(c(=O)oc12)CCC3 (centres undefined) | 0.81 | – | –
Cc1ncc(CO)c(/C=N/NC(=O)c2cc(Br)ccc2O)c1O | 14.1 | 3.66 µM [falling, full curve] | 6.51 µM [falling, single point]
Cc1cccc(-n2ccnc2SCC(=O)Nc2nccs2)c1C | -18.1 | 5.17 µM [rising, partial curve, poor fit] | –

SMILES | cell number change [%] | AC50 [1] | AC50 [2]
Cc1ccc(CCNc2ccccc2)c[n+]1[O-] | – | 0.58 µM [rising, single point] | 0.58 µM [rising, single point]
COC(=O)NNC(=O)COc1ccccc1C | -12.4 | 3.66 µM [falling, full curve] | –
Cn1c(C(=O)O)c(CC(=O)Nc2ccc(F)cc2F)c2ccccc21 | -13.8 | 0.411 µM [rising, full curve] | –
CCC(CNC(=O)c1c(C)nn(-c2ccccc2)c1Cl)c1ccccc1 (centres undefined) | 17.9 | 16.4 µM [rising, partial curve] | –
O=C(O)CCn1c(=O)[nH]c2ccccc2c1=O | -135 | 23.1 µM [falling, partial curve] | 25.9 µM [falling, partial curve]
COc1ccc2c(C)cc(SCC(=O)Nc3cccnc3Cl)nc2c1 | 119 | – | –
COc1ccc([C@@H]2[C@@H](C(=O)C(C)(C)C)N3N=Cc4ccccc4[C@@H]3C23C(=O)OC(C)(C)OC3=O)cc1OC | – | – | 0.092 µM [rising, full curve, poor fit]
Nc1cc(=O)[nH]c(SCC(=O)Nc2cc([N+](=O)[O-])ccc2Cl)n1 | 76.1 | – | 29.1 µM [rising, single point]
CCCCn1nc(NC(=O)c2cccs2)c2cc3ccccc3nc21 | -26.5 | 6.51 µM [falling, partial curve, poor fit] | 4.61 µM [falling, full curve, poor fit]
CCn1cc(CN2CCC(n3nccc3NC(=O)c3ccc4c(c3)OCO4)CC2)c(C)n1 | -14.7 | 1.84 µM [rising, partial curve] | –
Cc1ccc(S(=O)(=O)NC(C(=O)N2CCOCCOCCOCC2)C(C)C)cc1 (centres undefined) | 8.57 | 29.1 µM [falling, single point] | –
CN(C)c1ccc(N=Nc2ccccc2Br)cc1 | -54.2 | 9.2 µM [falling, partial curve] | 11.6 µM [falling, partial curve, poor fit]
CCOc1ccccc1NC(=O)Cn1cnc2c(nnn2-c2cccc(OC)c2)c1=O | -15.8 | 23.1 µM [falling, single point] | –
CC(O)CN1CCN(C(=O)CN2C(=O)NC(c3ccccc3)(c3ccccc3)C2=O)CC1 (centres undefined) | 11.6 | 14.6 µM [rising, partial curve] | –
CCOCCSC1=C(C#N)C(c2cccs2)C(C(C)=O)=C(C)N1 (centres undefined) | 13.4 | 6.51 µM [rising, single point] | –
Cn1c(SCC(=O)NC2CC2)nnc1-c1cccs1 | 0.54 | 29.1 µM [falling, single point] | –
CC(=O)Nc1c(C(=O)NCc2ccccc2)nnn1Cc1ccccc1 | 32.7 | – | 9.2 µM [rising, partial curve]
CC1CCCC(NC(=O)COC(=O)/C=C/c2ccc3c(c2)OCO3)C1C (centres undefined) | 0.104 | 0.731 µM [rising, partial curve] | –
CSc1nc2nccc(-c3ccc(Cl)cc3)n2n1 | -39 | 29.1 µM [falling, single point] | 23.1 µM [falling, single point]

A section of the results above, for reference:
SMILES | cell number change [%] | AC50 [1] | AC50 [2]
CCn1cc(CN2CCC(n3nccc3NC(=O)c3ccc4c(c3)OCO4)CC2)c(C)n1 | -14.7 | 1.84 µM [rising, partial curve] | –
Cc1ccc(S(=O)(=O)NC(C(=O)N2CCOCCOCCOCC2)C(C)C)cc1 (centres undefined) | 8.57 | 29.1 µM [falling, single point] | –
CN(C)c1ccc(N=Nc2ccccc2Br)cc1 | -54.2 | 9.2 µM [falling, partial curve] | 11.6 µM [falling, partial curve, poor fit]
CCOc1ccccc1NC(=O)Cn1cnc2c(nnn2-c2cccc(OC)c2)c1=O | -15.8 | 23.1 µM [falling, single point] | –

— PubChem BioAssay AID2685 (National Center for Advancing Translational Sciences (NCATS), 2010)
